# Test results taken from patent publication US20050227272A1.
# Chains of the proteins cited; added tags and fusions are not shown.
# UniProt P25963: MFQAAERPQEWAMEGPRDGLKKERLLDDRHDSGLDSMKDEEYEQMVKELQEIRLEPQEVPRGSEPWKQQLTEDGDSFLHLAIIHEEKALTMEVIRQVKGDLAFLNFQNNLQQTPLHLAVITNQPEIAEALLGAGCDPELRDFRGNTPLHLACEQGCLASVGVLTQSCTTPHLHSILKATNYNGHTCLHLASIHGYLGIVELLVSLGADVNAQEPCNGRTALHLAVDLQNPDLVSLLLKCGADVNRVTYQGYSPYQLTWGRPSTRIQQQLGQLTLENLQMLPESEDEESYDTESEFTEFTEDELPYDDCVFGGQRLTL
# Results are given in words; binding and its absence hold for the method and conditions named. For some of these results: In cells and extracts the contact can be indirect. Some results given as binding are weak or reduced against the parent protein; the word gives no strength. For some of these results: Sequences can lack the tags named with a protein.
# How the values were obtained:
# [1] = molecular target: full-length IκBα cloned into the pGADT7 vector (yeast two-hybrid target) (UniProt P25963); test: yeast two-hybrid, β-galactosidase assay, empty pGADT7 as control
# [2] = molecular target: clone from the pretransformed human spleen Matchmaker cDNA library that originated from the IκBα gene (human) (UniProt P25963); test: yeast two-hybrid screen of a human spleen cDNA library, high stringency
# [3] = molecular target: IκBα (endogenous, HEK293 cells) (UniProt P25963); test: co-immunoprecipitation from HEK293 cells with anti-His beads, Western blot with IκBα and His antibodies
# [4] = molecular target: IκBα (endogenous, HEK293 cells) (UniProt P25963); test: anti-His pull-down of His-SUMO4 complexes, 2D PAGE, MALDI-TOF/TOF
Binder,binding [1],binding [2],binding [3],binding [4]
"SUMO4 coding sequence cloned into the pGBKT7 vector (yeast two-hybrid bait) (protein, not shown: large carriers) MANEKPTEEVKTENNNHINLKVAGQDGSVVQFKIKRQTPLSKLMKAYCEPRGLSMKQIRFRFGGQPISGTDKPAQLEMEDEDTIDVFQQPTGGVY",binds,binds,,
"His-tagged SUMO4 expressed in HEK293 cells from pcDNA3.1 (protein, not shown: small tags and cut ends) MANEKPTEEVKTENNNHINLKVAGQDGSVVQFKIKRQTPLSKLMKAYCEPRGLSMKQIRFRFGGQPISGTDKPAQLEMEDEDTIDVFQQPTGGVY",,,binds,binds
